From PubChem BioAssay (EPA / NIEHS)
Inconclusive means that the source gave no clear call. Such entries were picked first, then a sample of the others. Potencies of inconclusive entries are doubtful fits and often do not repeat. Some structures have more than one record in an assay (separate samples or runs), and their calls can disagree. Activity calls are given as the source filed them. Rule for the calls: active = hit-call score of the fitted dose curve at least 0.9, where 1 is the maximum; inconclusive = response in the unintended direction; inactive = score below 0.9.

The chains behind the UniProt entries cited, without tags or fusion partners.
UniProt P33535, whole entry, looked up: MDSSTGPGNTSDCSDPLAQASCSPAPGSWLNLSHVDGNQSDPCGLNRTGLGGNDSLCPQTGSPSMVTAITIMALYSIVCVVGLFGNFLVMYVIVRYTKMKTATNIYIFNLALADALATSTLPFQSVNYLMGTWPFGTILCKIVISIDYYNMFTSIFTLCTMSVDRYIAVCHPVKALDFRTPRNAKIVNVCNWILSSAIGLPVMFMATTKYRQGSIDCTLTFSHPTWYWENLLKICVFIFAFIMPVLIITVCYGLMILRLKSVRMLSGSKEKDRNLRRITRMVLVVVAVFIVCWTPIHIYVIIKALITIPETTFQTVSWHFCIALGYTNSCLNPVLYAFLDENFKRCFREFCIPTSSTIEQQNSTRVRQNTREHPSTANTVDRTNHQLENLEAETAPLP

Biological target: rat Opioid Receptor, Non-selective Sodium (Na+) Binding, Oprm1 (gene 25601) (UniProt P33535)
Test: NVS_GPCR_rOpiate_NonSelectiveNa: NovaScreen (NVS) G Protein-Coupled Receptor Assay for rat Opioid Receptor, Non-selective Sodium (Na+) Binding (AID 2283311)
Experimental: NVS_GPCR_rOpiate_NonSelectiveNa is a biochemical, single-readout assay that uses extracted gene-proteins from Rat forebrain membranes in a tissue-based cell-free assay. Measurements were taken 1.5 hours after chemical dosing in a 48-well plate.NVS_GPCR_rOpiate_NonSelectiveNa is one of one assay component(s) measured or calculated from the NVS_GPCR_rOpiate_NonSelectiveNa assay. It is designed to make measurements of radioligand binding, a form of binding reporter, as detected with scintillation counting signals by Filter-based radiodetection technology.Data from the assay component NVS_GPCR_rOpiate_NonSelectiveNa was analyzed into 1 assay endpoint. This assay endpoint, NVS_GPCR_rOpiate_NonSelectiveNa, was analyzed in the positive analysis fitting direction relative to DMSO as the negative control and baseline of activity. Using a type of binding reporter, loss-of-signal activity can be used to understand changes in the binding as they relate to the gene Oprm1. Furthermore, this assay endpoint can be referred to as a primary readout, because the performed assay has only produced 1 assay endpoint. To generalize the intended target to other relatable targets, this assay endpoint is annotated to the gpcr intended target family, where the subfamily is rhodopsin-like receptor.
Binding assays used specific radioligands (tritiated, iodinated) with non-radioactive competitive displacement ligands in agonist or antagonist protocols (as indicated) and various reference compounds and inhibitors to titrate specific binding to receptors and transporters. Most enzyme assays (CYPs, kinases, phosphatases, proteases, HDACs) used recombinant protein and specific substrates (fluorescence mostly, some colorimetric and radioactive) and inhibitors, followed by a biochemical separation of substrate and product. All assays for the biochemical HTS were initially run in duplicate at a single concentration (10 uM for CYP450 assays and 25 uM for all others). Assay-chemical combinations meeting a pre-defined threshold (e.g., 30% inhibition and other criteria defined below) were then run in singleton concentration-response format with maximum concentration of 20 uM for CYPs and 50 uM for all others. Each assay was run with positive and negative controls, and concurrent controls on every plate. The follow-up (secondary) screen tested active chemical-pairs in concentration series, as well as a few additional assays not tested in the primary screen, some selected negative inactives, and several cases re-run in the concentration series for confirmatory purposes.

Structure (SMILES) | AC50 | outcome
CCCN(CCOc1c(Cl)cc(Cl)cc1Cl)C(=O)n1ccnc1 | inconclusive: 6.01 µM | 
CCN1CCC2(CC1)COc1cc3c(cc12)N(C(=O)c1ccc(-c2ccc(-c4nnc(C)o4)cc2C)cc1)CC3 | inconclusive: 23.4 µM | 
CCNc1nc(Cl)nc(NCC)n1 | inconclusive: 0.276 µM | 
COP(=S)(OC)Oc1nc(Cl)c(Cl)cc1Cl |  | inactive
CSC(C)(C)C=NO | inconclusive: 0.194 µM | 
Oc1ccc(Cl)cc1Cc1ccccc1 | inconclusive: 25.2 µM | 
CO/C=C(/C(=O)OC)c1ccccc1Oc1cc(Oc2ccccc2C#N)ncn1 | inconclusive: 0.0478 µM | 
CCOP(=O)(OCC)Oc1nc(Cl)c(Cl)cc1Cl | active: 25 µM | 
N#CC(CCc1ccc(Cl)cc1)(Cn1cncn1)c1ccccc1 (stereo unspecified) | inconclusive: 25 µM | 
CC[C@H](C)[C@H]1O[C@]2(C=C[C@@H]1C)C[C@@H]1C[C@@H](C/C=C(\C)[C@@H](O[C@H]3C[C@H](OC)[C@@H](O[C@H]4C[C@H](OC)[C@@H](NC)[C@H](C)O4)[C@H](C)O3)[C@@H](C)/C=C/C=C3\CO[C@@H]4[C@H](O)C(C)=C[C@@H](C(=O)O1)[C@]34O)O2 | inconclusive: 5.82 µM | 
COP(=O)(OC)OC(Br)C(Cl)(Cl)Br (stereo unspecified) | inconclusive: 0.222 µM | 

An excerpt of these results, comma-delimited:
Structure (SMILES),AC50,outcome
CCN1CCC2(CC1)COc1cc3c(cc12)N(C(=O)c1ccc(-c2ccc(-c4nnc(C)o4)cc2C)cc1)CC3,inconclusive: 23.4 µM,
Oc1ccc(Cl)cc1Cc1ccccc1,inconclusive: 25.2 µM,
